Values from PubChem BioAssay AID1259308 (NCATS, 2017).
This is one part, drawn at random, of about 59,000 deposited reagents. Of all reagents, about 1,510 (2.6%) got an active call. 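Calls use total luciferase alone and ignore viability, so some active siRNAs may act by altering cell number.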 The numbers tell different reagents against one gene apart.

Screen: 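Genes whose loss raises luciferase production in HEK293 cells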 (primary screen)
Cells: human HEK293 embryonic kidney cells stably expressing firefly luciferase (HEK-CMV-Luc2-Hygro)
Reagents: single siRNA against human genes, 0.8 pmol siRNA per well
Timing: 72 h
Detection: 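Luciferase light (ONE-Glo) measured on one replicate plate set and viability (CellTiter-Glo) on the other, scaled to a negative control siRNA, with robust z-scores and luciferase per cell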
Reading the numbers: total luciferase, z-score and total luciferase, % of control: higher = more reporter protein produced; luciferase per cell, z-score: higher = more reporter output per viable cell; viable cells, % of control: higher = more viable cells
Active means: 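An siRNA counts as active if its total luciferase robust z-score exceeds 3; genes with two or more such siRNAs out of three were retested with fresh siRNAs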
Meaning of the calls: active = raised luciferase; inactive = no rise

no.	Target gene	reagent	total luciferase, z-score	total luciferase, % of control	luciferase per cell, z-score	viable cells, % of control	Outcome
1	ADA2	1	-0.376	74.4	-1.08	111	inactive
2	ADA2	2	1.17	105	0.536	102	inactive
3	ADA2	3	-0.889	64.2	-0.42	80.1	inactive
4	CD36	1	-0.295	76	-0.865	107	inactive
5	CD36	2	-0.866	64.7	-0.645	85.6	inactive
6	CD36	3	-2.1	40.1	-1.88	73.6	inactive
7	CACNA2D4	1	-0.99	62.2	-1.25	96.6	inactive
8	CACNA2D4	2	-0.77	66.6	0.334	68.1	inactive
9	CACNA2D4	3	-0.256	76.8	-0.292	92.7	inactive
10	TIMM13	1	2.32	128	1.69	91.8	inactive
11	TIMM13	2	-0.406	73.8	-1.42	120	inactive
12	TIMM13	3	0.049	82.9	-0.278	99.6	inactive
13	TRIM47	1	2.21	126	2.24	78	inactive
14	TRIM47	2	-0.866	64.7	-0.938	92.5	inactive
15	TRIM47	3	1.18	105	1.13	87.4	inactive
16	TIMM8A	1	0.101	83.9	-0.744	114	inactive
17	TIMM8A	2	1.38	109	1.7	78.1	inactive
18	TIMM8A	3	0.529	92.4	0.915	81.2	inactive
19	CFAP53	1	3.96	161	3.91	64.1	active
20	CFAP53	2	-1.66	48.9	-1.64	84.1	inactive
21	CFAP53	3	-0.0842	80.2	-0.429	100	inactive
22	NPFFR2	1	-0.309	75.7	-0.25	90.4	inactive
23	NPFFR2	2	-0.601	69.9	-1.59	119	inactive
24	NPFFR2	3	-0.212	77.7	-0.628	102	inactive
25	CHURC1	1	0.351	88.9	-0.291	107	inactive
26	CHURC1	2	-0.00364	81.8	-0.352	100	inactive
27	CHURC1	3	1.72	116	1.25	93.2	inactive
28	AIPL1	1	0.0952	83.8	-0.246	99.9	inactive
29	AIPL1	2	-2.05	41.2	-2.1	80	inactive
30	AIPL1	3	0.491	91.7	0.649	86.3	inactive
31	AKNA	1	-0.607	69.8	-0.889	98.6	inactive
32	AKNA	2	0.606	93.9	0.589	89.9	inactive
33	AKNA	3	0.315	88.1	0.049	97.2	inactive
34	WIF1	1	-0.329	75.3	-0.387	93.2	inactive
35	WIF1	2	-1.96	42.9	-1.8	77	inactive
36	WIF1	3	-0.917	63.6	-0.862	89.2	inactive
37	ACR	1	0.0608	83.1	-0.576	108	inactive
38	ACR	2	0.483	91.5	0.193	97.2	inactive
39	ACR	3	0.508	92	0.52	89.6	inactive
40	PFKL	1	2.09	123	1.93	83.1	inactive
41	PFKL	2	0.618	94.2	0.781	85.7	inactive
42	PFKL	3	-0.823	65.5	-0.598	85.7	inactive
43	STON1-GTF2A1L	1	-0.00487	81.8	0.0985	89.1	inactive
44	STON1-GTF2A1L	2	-0.528	71.4	0.553	69	inactive
45	STON1-GTF2A1L	3	-1.14	59.2	-1.27	92.3	inactive
46	TIPRL	1	1.03	102	0.881	90.7	inactive
47	TIPRL	2	-0.00894	81.7	-0.0283	92	inactive
48	TIPRL	3	0.241	86.7	0.494	85	inactive
49	ALB	1	0.209	86	-0.13	99.5	inactive
50	ALB	2	-0.775	66.5	-1.21	102	inactive
51	ALB	3	-2.3	36.2	3.05	18.1	inactive
52	FCER2	1	1.52	112	3.82	45.8	inactive
53	FCER2	2	1.93	120	1.83	83	inactive
54	FCER2	3	-0.0177	81.5	0.552	78.8	inactive
55	TESK2	1	-0.664	68.7	-0.544	88.6	inactive
56	TESK2	2	1.39	109	0.387	110	inactive
57	TESK2	3	-0.587	70.2	0.00671	78.3	inactive

Only “luciferase per cell, z-score”, for 9 of the entries above:
TIPRL #2: -0.0283
TIPRL #3: 0.494
ALB #1: -0.13
ALB #2: -1.21
ALB #3: 3.05
FCER2 #1: 3.82
FCER2 #2: 1.83
FCER2 #3: 0.552
TESK2 #1: -0.544
